Some of the results follow.

Sequences of proteins named here, by UniProt entry; tags and fusion partners are left off.
UniProt Q0JBA9, entry or part of it: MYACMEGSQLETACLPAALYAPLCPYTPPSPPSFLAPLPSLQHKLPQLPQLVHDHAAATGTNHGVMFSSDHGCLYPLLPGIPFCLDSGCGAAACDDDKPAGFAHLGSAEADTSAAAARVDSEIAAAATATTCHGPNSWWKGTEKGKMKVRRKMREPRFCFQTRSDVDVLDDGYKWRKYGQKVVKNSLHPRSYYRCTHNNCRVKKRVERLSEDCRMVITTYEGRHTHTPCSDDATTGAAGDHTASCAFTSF

This test deals with OsWRKY34 (Oryza sativa, UniProt Q0JBA9 1-250). Description: protein-binding microarray (RPBM); PBS, 2% BSA, 51.3 ng/ul salmon testes DNA, 50 uM zinc acetate, 200 nM TF, 25 C, 1 h; high values mean tight binding. Conditions: protein: recombinant; tags: N-terminal polyhistidine and DsRed monomer fusion (pET32a); label: CyDye5-dUTP incorporated in the synthesized complementary strand; 3' TTTTT single-stranded linker to array surface; dsDNA, one strand shown. In outline:
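Transcription factors were made in E. coli BL21-CodonPlus as N-terminal fusions to a polyhistidine tag and DsRed, then purified on Ni–NTA. After primer extension with Cy5-dUTP and blocking with 2% BSA, a custom Agilent array was exposed for 1 h at 25 °C to 200 nM protein in PBS, 2% BSA, salmon testes DNA and 50 µM zinc acetate. Washed arrays were scanned on an Axon 4000B, and the binding signal is per-feature fluorescence intensity in arbitrary units.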
Take “TCTCCAGCATGTTTCAGTTATTGCATTTGTTTTCTAAAGACGGAGTCACCTAGTGCAG”: the binding signal was 10600 fluorescence intensity (a.u.). The value for “ACCGCGTCGGCCATCACGTTCCTACAAATCTTGCAGTAGACGGAGTCACCTAGTGCAG” was 8230 fluorescence intensity (a.u.); that for “CTCCTGCACGCTGTCAAGTTACCATTTCTTTGGTCTTTTCCGGAGTCACCTAGTGCAG” was 14200 fluorescence intensity (a.u.). As for “ACGTGCAGCTTTTTCTCGTCATCCCCGCACCATCGACGAGCGGAGTCACCTAGTGCAG”, the figure is 10600 fluorescence intensity (a.u.). As for “AAAGCTGGGACCCACCACCTGACGGCCTGACCCCACCATTCGGAGTCACCTAGTGCAG”, the figure is 8100 fluorescence intensity (a.u.); as for “ATTTTTTTGTCAGTCTGTCCTTACATGTGCCATTTTTTCACGGAGTCACCTAGTGCAG”, 12400 fluorescence intensity (a.u.).

“GACGTGGAGTCGTTGGTGTTTGGTTCAGTATCCTCGCTCTCGGAGTCACCTAGTGCAG”: the binding signal was 10700 fluorescence intensity (a.u.).

In the case of “CAAAAGTGGTCCTTGTGTTTGTGTGGCATTAGGATTAGGTCGGAGTCACCTAGTGCAG”, the binding signal is 9720 fluorescence intensity (a.u.).

As to “GTGTTCCGGTTCAGGCTATTGAGGTCCTTTCGATCACGCGCGGAGTCACCTAGTGCAG”, the binding signal was 9420 fluorescence intensity (a.u.). The value for “CCGCTGTTCTTATCTTCCCCACTCGTGCCTGGCTCTCTCTCGGAGTCACCTAGTGCAG” was 8530 fluorescence intensity (a.u.); that for “TTACGTACTGTAGTTCTATGCTTCTATTGCTGTATGAGCACGGAGTCACCTAGTGCAG” was 9050 fluorescence intensity (a.u.). Consider “GTACTACCGCCGTGGCCATATCGCTCATTCATGATTCATCCGGAGTCACCTAGTGCAG”, for which the binding signal is 8680 fluorescence intensity (a.u.). The value for “GACTACATTTACTTGGTCACTTTTCTTGAATACACTTCCCCGGAGTCACCTAGTGCAG” was 9330 fluorescence intensity (a.u.). As for “GGCTCGGCTCGCGTCCTCTTCCTCCTCGCATCGCATCGCACGGAGTCACCTAGTGCAG”, the figure is 8560 fluorescence intensity (a.u.). As for “GAAATCTTTTACGGTGGTGATACATTATATATTGATAGATCGGAGTCACCTAGTGCAG”, the figure is 8340 fluorescence intensity (a.u.). For “CTTTTCGTAACCCTTTCAGCAATTCTAGTCATTGATGATTCGGAGTCACCTAGTGCAG”, the binding signal was 9090 fluorescence intensity (a.u.). The value for “CCTCCACACCTACCAACCCTACTGTCACTAATAAATCATTCGGAGTCACCTAGTGCAG” was 8350 fluorescence intensity (a.u.); that for “ATGGTTGCTTGTATGGTGGATCCTTGCTATTGAATTGGAGCGGAGTCACCTAGTGCAG” was 11000 fluorescence intensity (a.u.); that for “TTCTTTTCGTCTTTTTTTACATGGGATCGGATTCATTTTTCGGAGTCACCTAGTGCAG” was 9690 fluorescence intensity (a.u.). As for “TCCATCTCATCTCATTCGTCCATCCGCCATCTCATCTAATCGGAGTCACCTAGTGCAG”, the figure is 8580 fluorescence intensity (a.u.); as for “CCACTGCCCTGTCTTTGCACACATCAGTCTTCCCGGAGTTCGGAGTCACCTAGTGCAG”, 8640 fluorescence intensity (a.u.).

With “GAGGAGGCAAATGGGGAGGGGAAGCGATCGGAGGAGGCGGCGGAGTCACCTAGTGCAG”, the binding signal was 8320 fluorescence intensity (a.u.). As to “GTAGATGGAGAGGGTATTGTAGCAGGATGTTACTGTGATACGGAGTCACCTAGTGCAG”, the binding signal is 8190 fluorescence intensity (a.u.). The value for “ACCACAAACTAATTATAGGTGCATACTTTCTATTTGCGCACGGAGTCACCTAGTGCAG” was 9210 fluorescence intensity (a.u.); that for “GTCGGATATCGTGTCATGTTTCCCATTGCCATCTCTAGTCCGGAGTCACCTAGTGCAG” was 9440 fluorescence intensity (a.u.).

As to “AGCACCCAAGTCCCACTATATCAAGTCCAAACCTATCCTCCGGAGTCACCTAGTGCAG”, the binding signal was 8340 fluorescence intensity (a.u.). As for “GGTAAGGGAAACCATGGGGTGGGCTACGCTTGCAATGCTCCGGAGTCACCTAGTGCAG”, the figure is 8370 fluorescence intensity (a.u.). The value for “GACATTTCACTTTGAACCATACTTTTCCTAATCTGTTTTACGGAGTCACCTAGTGCAG” was 11400 fluorescence intensity (a.u.). As for “CTCTTTTCTTTCTTTTCTTTTCCTTTCTTTTTCCTTTCTTCGGAGTCACCTAGTGCAG”, the figure is 8540 fluorescence intensity (a.u.); as for “CTCTTCATTCCATCCATCCATGCATTCATGTATTTAATGACGGAGTCACCTAGTGCAG”, 8110 fluorescence intensity (a.u.); as for “ACGGTGTATATTTGTGGTGTGGCGGGTGTGGCATTGGATTCGGAGTCACCTAGTGCAG”, 16700 fluorescence intensity (a.u.). As for “CAATCAAATCATAACTTCACAGCTCCTGTTCTCACATTATCGGAGTCACCTAGTGCAG”, the binding signal was 8520 fluorescence intensity (a.u.). As for “GGATGTGCTTTTCCTGACATGTATTTTATTATGCTATTGCCGGAGTCACCTAGTGCAG”, the figure is 9400 fluorescence intensity (a.u.). For the sequence “TGAGAGAGAATCTGTGCCTGTAAATGGGGTAGGTAAAGAACGGAGTCACCTAGTGCAG”, the binding signal was 8150 fluorescence intensity (a.u.).

Take “TATGAGTGTGTGACTGTGTGTGAGTGTGTCATGACTTTTGCGGAGTCACCTAGTGCAG”: the binding signal was 8940 fluorescence intensity (a.u.). In the case of “CGCGCCACGGGCACCCGCTCTCTCGCGCCTACTCTCTCTCCGGAGTCACCTAGTGCAG”, the binding signal is 11200 fluorescence intensity (a.u.). As for “CACATTACAACTACCTTGATTGGAGGCTTCTCATATTATACGGAGTCACCTAGTGCAG”, the binding signal is 9190 fluorescence intensity (a.u.). The value for “TCTTTTTTTTTTCTTTTTGCAGTACTTTGTACCAGTAATTCGGAGTCACCTAGTGCAG” was 8420 fluorescence intensity (a.u.); that for “GTATATGTTTGTCTCGAAAATCCTTTTTTTTGGCTATTTACGGAGTCACCTAGTGCAG” was 8810 fluorescence intensity (a.u.). As for “CAGGATATATAGTTCTGTTGAGTAGTTTTATGTGGTAATCCGGAGTCACCTAGTGCAG”, the figure is 8620 fluorescence intensity (a.u.). As for “ATCAACTAAGCAATCGTTTCCTTATGTTCCTCGTATGCAACGGAGTCACCTAGTGCAG”, the figure is 9460 fluorescence intensity (a.u.); as for “GAACTTATTCCACCCACTATCCAGACACCAAGTGACCGAGCGGAGTCACCTAGTGCAG”, 8310 fluorescence intensity (a.u.).

Values taken from PMC7819943, “Rice protein-binding microarrays: a tool to detect cis-acting elements near promoter regions in rice”.
